Data published in patent publication US20060153897A1, “Zinc-containing foods” (priority 2001, published 2006).
Some entries share one result that the patent states for a list of compounds. For at least one compound, name, drawing or mass did not settle the structure.

Test system: female and male rats
Experiment: Acute toxicity test
Assay type: in vivo
Experimental: Outside the application of GLP, acute toxicity test was carried out for zinc complexes with maltol, picolinic acid, picolinamide, 6-methyl-picolinic acid, L-threonine and L-valine.

Row | SMILES | LD50 (female rats) | LD50 (male rats)
1 | O=C([O-])c1ccccn1.O=C([O-])c1ccccn1.[Zn+2] [zinc complex with picolinic acid] | not less than 2,000 mg/kg | not less than 2,000 mg/kg
2 | Cc1cccc(C(=O)[O-])n1.Cc1cccc(C(=O)[O-])n1.[Zn+2] [bis(6-methylpicolinic acid)/zinc complex] | not less than 2,000 mg/kg | not less than 2,000 mg/kg
3 | CC(C)[C@H](N)C(=O)[O-].CC(C)[C@H](N)C(=O)[O-].[Zn+2] [zinc complex with L-valine] | not less than 2,000 mg/kg | not less than 2,000 mg/kg
